Results taken from US5773415A, “Use of des-aspartate-angiotensin I as an anti-cardiac hypertrophic agent” (National University of Singapore, priority 1995, dated 1998).
At least one peptide structure holds a part that was inferred or is arguable (an end, a ring closure or a residue). Where no end group is shown, it is not given here.

Experiments:
rabbit aortic ring = conditions: Sim and Yuan 1995; cited from earlier work
[1] = tested on: pressor action of angiotensin II and angiotensin III in the brain; conditions: Sim and Radhakrishnan 1994; cited from earlier work
[2] = tested on: plasma and pulmonary angiotensin converting enzyme; conditions: Tsai et al 1975; cited from earlier work
[3] = tested on: experimentally-induced cardiac hypertrophy in rats; assay: Cardiac hypertrophy induced by co-arctation of the abdominal aorta; hypertrophy index; assay type: in vivo, rat; conditions: for Hypertrophy Index (ventricle weight in mg/body weight in g): mean ± SEM, 6 rats

RVYIHPFHL [des-Aspartate-angiotensin I, Arg-Val-Tyr-Ile-His-Pro-Phe-His-Leu]
Effect on contractile action of angiotensin II (rabbit aortic ring): potentiate
Effect on contractile action of angiotensin III (rabbit aortic ring): attenuate
Effect on pressor action of angiotensin II and angiotensin III in the brain [1]: attenuate
Substrate of plasma and pulmonary angiotensin converting enzyme [2]: excellent substrate
Hypertrophy Index (ventricle weight in mg/body weight in g) ([3]; i.v. 23 ng (19 pmol) per day for four days): 3.72 ± 0.18 mg/g
Hypertrophy Index (ventricle weight in mg/body weight in g) ([3]; i.v. 45 ng (38 pmol) per day for four days): 3.51 ± 0.09 mg/g
Hypertrophy Index (ventricle weight in mg/body weight in g) ([3]; i.v. 90 ng (76 pmol) per day for four days): 3.47 ± 0.13 mg/g
Hypertrophy Index (ventricle weight in mg/body weight in g) ([3]; i.v. 180 ng (152 pmol) per day for four days): 3.17 ± 0.14 mg/g
Anti-hypertrophic action, dose relation ([3]; i.v. and oral, four days): dose-dependent
Effect on experimentally-induced cardiac hypertrophy ([3]; i.v. dose of 180 ng (given over a period of 4 hours) per day for four days, rats): attenuates significantly
Dose that brings about maximum anti-hypertrophic action, i.v. ([3]; i.v., for four days): 180 ng/day
Hypertrophy Index (ventricle weight in mg/body weight in g) ([3]; oral 64 μg (63.5 nmol) per day for four days): 3.40 ± 0.10 mg/g
Hypertrophy Index (ventricle weight in mg/body weight in g) ([3]; oral 128 μg (125 nmol) per day for four days): 3.23 ± 0.12 mg/g
Hypertrophy Index (ventricle weight in mg/body weight in g) ([3]; oral 285 μg (250 nmol) per day for four days): 2.93 ± 0.09 mg/g
Hypertrophy Index (ventricle weight in mg/body weight in g) ([3]; oral 590 μg (500 nmol) per day for four days): 3.13 ± 0.22 mg/g
Hypertrophy Index (ventricle weight in mg/body weight in g) ([3]; oral 1180 μg (1000 nmol) per day for four days): 3.34 ± 0.16 mg/g
Hypertrophy Index (ventricle weight in mg/body weight in g) ([3]; oral 1770 μg (1500 nmol) per day for four days): 3.57 ± 0.17 mg/g
Dose that brings about maximum anti-hypertrophic action, oral ([3]; oral, for four days): 285 µg/day
Effect on cardiac hypertrophy when given orally ([3]; orally at 285 mg per day for four days): equally effective
